Among all 410,000 compounds or so, about 18,000 (4.4%) were called active. This list was built around the results that the source calls inconclusive (neither active nor inactive); the mix of calls is not that of the screen. Cut-off read from the data, not from the text of the source: active = activity change below about -60%; inconclusive = no clear call, values can overlap the other calls; inactive = above about -39%. Where a structure was tested more than once in an assay, its records may differ in their call.
Test: qHTS Assay for inhibitors of the human cytomegalovirus (HCMV)
Conditions: HFF cells, HCMV-luciferase reporter, 72 h; at 57.5 µM; stronger effect = lower value
How it was run: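 Compounds were evaluated in HFFs infected with an HCMV luciferase reporter virus (MOI 1 PFU/cell). Luciferase in lysates collected 72 h post infection served as the replication measure.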
% is set by controls: 0 for no effect and ±100 for the full control effect.

SMILES	activity change, negative = inhibition
CCCc1nc(SCC(=O)N2CCc3ccccc3C2)c2ccccc2n1	inconclusive: -43.5%
COc1cc(C=C2CN(C)C(=O)C2=O)ccc1O	inactive: -2.38%
CC(=O)Nc1cccc(-c2nnc(SCC(=O)c3cc([N+](=O)[O-])ccc3Cl)o2)c1	inconclusive: -54.2%
O=C(NCC(c1ccc2c(c1)OCO2)N1CCN(c2ccccc2)CC1)C(=O)Nc1ccccc1F (stereo unspecified)	inactive: 9.73%
Cc1cc(C(=O)OCC(=O)NCc2ccco2)c(C)n1-c1ccc(F)cc1	inconclusive: -44.8%
CC(=O)NC(CC(=O)Nc1ccc2c(c1)OCCO2)c1ccccc1 (stereo unspecified)	inactive: 32.6%
CC(C)CCN=CC1=C(O)CC(c2ccccc2)CC1=O (stereo unspecified)	inconclusive: -59.1%
CCS(=O)(=O)c1nc(S(=O)(=O)c2ccc(Cl)cc2)c(N2CCN(C)CC2)s1	active: -77.3%
O=C(CCS(=O)(=O)c1ccccc1)Nc1nc2cc3c(cc2s1)OCO3	inactive: -1.32%
COc1ccc(CCNC(=O)c2ccccc2SC)cc1	inconclusive: -51.5%
CCn1c(/C=N/NC(=O)c2ccc(OC)cc2)nc2ccccc21	inconclusive: -44.2%
O=c1c(-c2ccc(O)cc2)coc2c([C@@H]3O[C@H](CO)[C@@H](O)[C@H](O)[C@H]3O)c(O)ccc12	inconclusive: -49.7%
O=C1CC(NC2CCN(C(=O)c3cccc(F)c3)CC2)C(=O)N1 (stereo unspecified)	inactive: -6.8%
Cc1cccc(-c2nc(NCCN(C)C)c3ccccc3n2)c1	inconclusive: -59.7%
O=C(NCc1cccc(Br)c1)C1CCCCN1S(=O)(=O)c1ccc(F)cc1 (stereo unspecified)	inactive: -7.49%
CCOC(=O)c1c(C)[nH]c(C(=O)OCC(=O)N(C)c2c(N)n(Cc3ccccc3)c(=O)[nH]c2=O)c1C	inconclusive: -43.5%
COc1ccc(CCNCc2ccc(OCc3ccccc3)cc2)cc1	active: -89.5%
COc1ccc2cc(C(N)=O)c(=Nc3ccccc3)oc2c1	inconclusive: -47.1%
CC(C)C(=O)Nc1ccccc1Cc1ccccc1	inconclusive: -53%
CCOc1ccc(NC(=O)c2ccc3c(=O)n4c(nc3c2)CCCCC4)cc1	active: -63.1%
CC(C)c1ccc(CNc2ccc([N+](=O)[O-])cn2)cc1	inactive: 58.7%
CC1(OC(=O)CCc2ccccc2)C(=O)C=C2C=C3CCCN3C=C2C1=O (stereo unspecified)	inactive: -32.2%

SMILES	activity change, negative = inhibition
CCc1cccc(OCC(=O)Nc2ccc(S(=O)(=O)Nc3onc(C)c3C)cc2)c1	inactive: 0.352%
CC1(C)Oc2ccc(C(=O)NC3CC3)cc2N(CC(=O)N2CCOCC2)C1=O	inactive: 25%
CCOC(=O)c1[nH]c2ccccc2c1NC(=O)c1ccc(C)c(C)c1	inactive: -6.34%
O=C(CCn1cnc2onc(-c3ccc(F)cc3)c2c1=O)Nc1cccc(C(F)(F)F)c1	active: -85.8%
Cc1ccc(-n2c(C)c([N+](=O)[O-])c3ccc(O)c(CN(C)C)c32)cc1	active: -93%
O=C(Nc1nc(-c2ccc(S(=O)(=O)N3CCCC3)cc2)cs1)c1ccco1	active: -65.1%
C/C(=N\OC(=O)c1ccc(Cl)c(Cl)c1)c1sc(C)nc1C	inconclusive: -49.8%
Cc1c(C=O)c(C=O)c(C)n1Cc1ccccc1	active: -80.7%
O=[N+]([O-])c1ncn(Cc2c(Cl)cccc2Cl)n1	inconclusive: -41%
C=CCNc1nc(-c2ccc(O)c(C(N)=O)c2)cs1	inactive: -20.9%
COc1ccc(CNC(=O)C2CCN(Cc3nc(-c4ccc(OC)c(OC)c4)oc3C)CC2)cc1	inactive: 16.3%
CCc1ccc(NC(=O)C(C)OC(=O)Cc2cc(OC)c(OC)c(OC)c2)cc1 (stereo unspecified)	inactive: 25.1%
O=C(Cn1cnc2cc([N+](=O)[O-])ccc2c1=O)Nc1ccccc1Cl	inconclusive: 0%
Cc1nc(C)c(C(=O)C2=C(O)C(=O)N(CCCn3ccnc3)C2c2ccc(Cl)cc2)s1 (stereo unspecified)	inconclusive: -47.5%
COc1cccc(Cn2c(=O)n(-c3ccc(C)c(F)c3)c(=O)c3sc4ccccc4c32)c1	inconclusive: -43.6%
O=C(CCOc1cccc(Br)c1)Nc1ccc(F)c(S(=O)(=O)N2CCOCC2)c1	inconclusive: -50.8%
COc1ccccc1NC(=O)CSC1=NCCN1	inconclusive: -44.4%
CCOc1cccc2sc(=NC(=O)CCS(=O)(=O)c3ccccc3)n(CC)c12	inconclusive: -43.6%
Cc1ccccc1CNC(=O)c1ccc(Cn2c(SCc3cccc(F)c3)nc3cccnc32)cc1	inactive: -33.6%
O=C(CCc1cn(Cc2ccccc2F)c2ccccc12)NCc1ccc(Cl)cc1	inactive: -26.5%
c1cncc(-c2nc3ccccc3s2)c1	inactive: -17.1%
O=C1CCN(CCCc2ccccc2)CCN1[C@H](CO)Cc1ccccc1	inconclusive: -51.6%

SMILES	activity change, negative = inhibition
O=C(O)Cn1c(=O)cnc2ccccc21	inactive: -8.73%
CN(CC(=O)Nc1ccccc1Cl)C(=O)c1cccc(S(=O)(=O)N2CCN(c3ccc(F)cc3)CC2)c1	active: -80%
Cc1ccc(-n2c(O)c(/C=C3/C(c4ccccc4)=Nc4ccccc43)c(=O)[nH]c2=O)cc1	inactive: 12.7%
CCCCCCn1c(=O)c(C(=O)Nc2c(C)n(C)n(-c3ccccc3)c2=O)c(O)c2ccccc21	inconclusive: -47.1%
COC(=O)C[C@H](NC(=O)Cn1cnc(C(=O)Nc2ccc(C)c(C)c2)n1)C(=O)OC	active: -65.1%
O=C(NCc1ccccc1)C1Cc2c(-c3ccc(Cl)cc3)ccnc2O1 (stereo unspecified)	inconclusive: -50.7%
Cn1nnc2cc(NC(=O)Nc3cccc(Cl)c3)ccc21	active: -102%
CCN(CC)S(=O)(=O)c1ccc(N(C)Cc2cccc(OC)c2OC)nc1	inconclusive: -44.5%
CC1CCCCC12NC(=O)N(CC(=O)NC(=O)Nc1ccc3c(c1)OCCO3)C2=O (stereo unspecified)	inactive: 128%
COc1ccc(NC(=O)c2ccccc2NC(=O)C2CCCO2)cc1 (stereo unspecified)	inactive: 47.1%
Cn1c(/C(C#N)=C(\O)c2ccccc2Cl)nc2ccccc21	inconclusive: -43.3%
Cc1cccc(Cn2cc(C(=O)c3ccccc3)c(=O)c3cc4c(cc32)OCO4)c1	inactive: -13.9%
O=C(Cc1cccc2ccccc12)N/N=C/c1ccc(F)cc1	inactive: -17.9%
O=C(CCC(=O)Nc1ccccc1Cl)N/N=C/c1ccccc1	inconclusive: -46.4%
Cc1cc(C)cc(C(=O)N(CCc2ccccc2)C2CC3CCC(C2)N3C)c1 (stereo unspecified)	inactive: -28.5%
Cc1cccc(OCC(=O)Nc2ccccc2N2CCCCC2)c1	inconclusive: -43.8%
COc1ccccc1Nc1nc(Cl)nc(NC(C)(C)C)n1	inconclusive: -47.7%
C=CCOc1ccc(/C=C/C(=O)N2CCCN(S(=O)(=O)c3c(C)noc3C)CC2)cc1	inconclusive: -49.6%
CCn1cc(C(=O)O)c(=O)c2cc(F)c(N3CCN(C(=S)NC(=O)c4ccc(F)c(F)c4)CC3)cc21	inactive: -27.7%
CCNc1nc(=S)nc(NC(C)C)[nH]1	inconclusive: -47.3%
O=C(Nc1cccc(Cl)c1)c1cc(S(=O)(=O)NCCc2ccc(Cl)cc2)ccc1F	inconclusive: -45.1%
O=[N+]([O-])c1ccc2[nH]c3c(c2c1)CCCC3O (stereo unspecified)	inconclusive: -50.4%

An excerpt of these results, as a markdown table:

| SMILES | activity change, negative = inhibition |
| --- | --- |
| O=C(O)Cn1c(=O)cnc2ccccc21 | inactive: -8.73% |
| CN(CC(=O)Nc1ccccc1Cl)C(=O)c1cccc(S(=O)(=O)N2CCN(c3ccc(F)cc3)CC2)c1 | active: -80% |
| Cc1ccc(-n2c(O)c(/C=C3/C(c4ccccc4)=Nc4ccccc43)c(=O)[nH]c2=O)cc1 | inactive: 12.7% |
| CCCCCCn1c(=O)c(C(=O)Nc2c(C)n(C)n(-c3ccccc3)c2=O)c(O)c2ccccc21 | inconclusive: -47.1% |
| COC(=O)C[C@H](NC(=O)Cn1cnc(C(=O)Nc2ccc(C)c(C)c2)n1)C(=O)OC | active: -65.1% |
| O=C(NCc1ccccc1)C1Cc2c(-c3ccc(Cl)cc3)ccnc2O1 (stereo unspecified) | inconclusive: -50.7% |
| Cn1nnc2cc(NC(=O)Nc3cccc(Cl)c3)ccc21 | active: -102% |
| CCN(CC)S(=O)(=O)c1ccc(N(C)Cc2cccc(OC)c2OC)nc1 | inconclusive: -44.5% |
| CC1CCCCC12NC(=O)N(CC(=O)NC(=O)Nc1ccc3c(c1)OCCO3)C2=O (stereo unspecified) | inactive: 128% |
| COc1ccc(NC(=O)c2ccccc2NC(=O)C2CCCO2)cc1 (stereo unspecified) | inactive: 47.1% |
| Cn1c(/C(C#N)=C(\O)c2ccccc2Cl)nc2ccccc21 | inconclusive: -43.3% |
| Cc1cccc(Cn2cc(C(=O)c3ccccc3)c(=O)c3cc4c(cc32)OCO4)c1 | inactive: -13.9% |
| O=C(Cc1cccc2ccccc12)N/N=C/c1ccc(F)cc1 | inactive: -17.9% |
| O=C(CCC(=O)Nc1ccccc1Cl)N/N=C/c1ccccc1 | inconclusive: -46.4% |
| Cc1cc(C)cc(C(=O)N(CCc2ccccc2)C2CC3CCC(C2)N3C)c1 (stereo unspecified) | inactive: -28.5% |
| Cc1cccc(OCC(=O)Nc2ccccc2N2CCCCC2)c1 | inconclusive: -43.8% |
| COc1ccccc1Nc1nc(Cl)nc(NC(C)(C)C)n1 | inconclusive: -47.7% |
| C=CCOc1ccc(/C=C/C(=O)N2CCCN(S(=O)(=O)c3c(C)noc3C)CC2)cc1 | inconclusive: -49.6% |
| CCn1cc(C(=O)O)c(=O)c2cc(F)c(N3CCN(C(=S)NC(=O)c4ccc(F)c(F)c4)CC3)cc21 | inactive: -27.7% |
| CCNc1nc(=S)nc(NC(C)C)[nH]1 | inconclusive: -47.3% |

Continued:

SMILES	activity change, negative = inhibition
COc1cc(-c2cc(C(=O)N3CCN(c4ccccn4)CC3)c3ccccc3n2)cc(OC)c1OC	inactive: 40.2%
COCCNS(=O)(=O)c1ccc(C2CNC(=O)C2)cc1 (stereo unspecified)	inactive: -7.34%
C/C=C/C=C\C(=O)Nc1cccc(C2=NOC3(C2)C[C@@H](C(N)=O)N(C(=O)c2cc([N+](=O)[O-])cc([N+](=O)[O-])c2)C3)c1 (stereo partly specified)	inconclusive: -41.5%
Cc1ccccc1NC(=O)/C=C/c1cccc(C(F)(F)F)c1	inconclusive: -43.6%
O=[N+]([O-])c1ccc(N=Cc2ccc(Br)c([N+](=O)[O-])c2)cc1	inconclusive: -45.4%
Cc1ccc(S(=O)(=O)NCC(=O)N(CC2CCCO2)C(C(=O)NCC2CCCO2)C(C)C)cc1 (stereo unspecified)	inactive: 13.5%
COc1cccc(CC2(CO)CCCN(Cc3ccc(CN4CCCCC4)s3)C2)c1 (stereo unspecified)	inconclusive: -40%
CCOc1ccccc1NC(=O)COC(=O)/C=C/c1ccc(OC)c(OC)c1	inconclusive: -52.5%
CCC(=O)N1CCc2cc(S(=O)(=O)CCC(=O)Nc3ccc(Cl)c(C(F)(F)F)c3)ccc21	active: -91.2%
CCCCN(CC)CCNC(=O)c1cn(CCOC)c(=O)c2c1c1ccccc1n2C	inconclusive: -46%
N#Cc1nc(-c2cccs2)oc1NCCCN1CCOCC1	inactive: -20.8%
N#C/C(=C\c1c(Cl)cccc1Cl)c1nn(-c2ccccc2)c(-n2cccc2)c1C#N	inconclusive: -48.2%
CCOC(=O)c1c(C)[nH]c(C)c1C(=O)CSc1nc2ccccc2c(=O)n1-c1ccccc1C	inconclusive: -46.1%
O=C(NCC1CCCO1)c1cnc(Cl)c(Cl)c1 (stereo unspecified)	inactive: -4.43%
CCC1CCCCN1C(=O)COC(=O)c1n[nH]c2ccccc12 (stereo unspecified)	inactive: -24%
NC(N)=N/N=C/c1ccc(OS(=O)(=O)c2ccccc2)cc1	active: -82%
O=C(Oc1c(CN2CCOCC2)cc(Cl)c2cccnc12)c1ccccc1	active: -96.5%
CCCC(=O)Nc1ccc(C(=O)NN2C(=O)c3ccccc3C2=O)cc1	inconclusive: -47.2%
CC(C)OP(=O)(OC(C)C)C(Nc1cccc(C(=O)O)c1)c1ccccc1 (stereo unspecified)	inactive: -28.5%
CCn1ncc(C2=NOC(C(=O)NCc3ccccc3)C2)c1C (stereo unspecified)	active: -60.1%

From PubChem BioAssay AID1259415 (National Center for Advancing Translational Sciences (NCATS), 2018)
